Data reported in US20170022254 (published 2017).

Assay: general procedure: hybrid (solid and solution phase) peptide synthesis; 2-chlorotrityl resin; HATU/DIPEA; DICI/Oxyma; MSNT/NMI
Conditions: whole synthesis

Row | Substance | crude mass (scale 5.0 mmol) | crude mass (scale 5.0 mmols)
1 | (2S,5S,8S,9R,12S,15S,18S,19S)-2-(2-(1,3-dioxolan-2-yl)ethyl)-18-amino-15-(4-(tert-butoxy)benzyl)-12-((S)-sec-butyl)-5-isobutyl-8-((S)-2-isobutyramido-5-oxo-5-(tritylamino)pentanamido)-9,16,19-trimethyl-4,7,11,14,17-pentaoxo-10-oxa-3,6,13,1 | 9.6 g | 
2 | (4S)-2-(2-((3S,6S,9S,12S,15S,18S,19R)-6-(4-(tert-butoxy)benzyl)-3,9-di((S)-sec-butyl)-15-isobutyl-18-((S)-2-isobutyramido-5-oxo-5-(tritylamino)pentanamido)-7,19-dimethyl-2,5,8,11,14,17-hexaoxo-1-oxa-4,7,10,13,16-pentaazacyclononadecan-12-yl)ethyl)-1,3-dioxolane-4-carboxylic acid |  | 2.6 g
